{"source": "patent US20090263381A1", "about": "“COMBINATION OF DEHYDROEPIANDROSTERONE OR DEHYDROEPIANDROSTERONE-SULFATE WITH AN ANTI-IGE ANTIBODY FOR TREATMENT OF ASTHMA OR CHRONIC OBSTRUCTIVE PULMONARY DISEASE” (priority 2003, published 2009)", "experiment": "Aerosolization from single-dose Acu-Breathe device, fine particle fraction", "data": [{"smiles": "C[C@]12CC[C@H](OS(=O)(=O)[O-])CC1=CC[C@@H]1[C@@H]2CC[C@]2(C)C(=O)CC[C@@H]12.[Na+]", "note": "[Anhydrous DHEA-S]", "values": [{"measurement": "fine particle fraction (IDL data)", "setting": "30 L/min, result was set to zero", "value": "no detectable mass entered the impactor"}]}, {"smiles": "CC12CCC3C(CC=C4CC(OS(=O)(=O)[O-])CCC43C)C1CCC2=O.[Na+]", "note": "(centres unmarked) [DHEA-S dihydrate]", "values": [{"measurement": "fine particle fraction versus virtually anhydrous material", "setting": "neat powder, single-dose Acu-Breathe, all flow rates 30 to 75 L/min", "value": "higher fine particle fraction than the virtually anhydrous material"}]}]}
